{"sequences": {"note": "Protein sequences, listed by entry. Tags and fused reporters are not part of them.", "UniProt P78362": "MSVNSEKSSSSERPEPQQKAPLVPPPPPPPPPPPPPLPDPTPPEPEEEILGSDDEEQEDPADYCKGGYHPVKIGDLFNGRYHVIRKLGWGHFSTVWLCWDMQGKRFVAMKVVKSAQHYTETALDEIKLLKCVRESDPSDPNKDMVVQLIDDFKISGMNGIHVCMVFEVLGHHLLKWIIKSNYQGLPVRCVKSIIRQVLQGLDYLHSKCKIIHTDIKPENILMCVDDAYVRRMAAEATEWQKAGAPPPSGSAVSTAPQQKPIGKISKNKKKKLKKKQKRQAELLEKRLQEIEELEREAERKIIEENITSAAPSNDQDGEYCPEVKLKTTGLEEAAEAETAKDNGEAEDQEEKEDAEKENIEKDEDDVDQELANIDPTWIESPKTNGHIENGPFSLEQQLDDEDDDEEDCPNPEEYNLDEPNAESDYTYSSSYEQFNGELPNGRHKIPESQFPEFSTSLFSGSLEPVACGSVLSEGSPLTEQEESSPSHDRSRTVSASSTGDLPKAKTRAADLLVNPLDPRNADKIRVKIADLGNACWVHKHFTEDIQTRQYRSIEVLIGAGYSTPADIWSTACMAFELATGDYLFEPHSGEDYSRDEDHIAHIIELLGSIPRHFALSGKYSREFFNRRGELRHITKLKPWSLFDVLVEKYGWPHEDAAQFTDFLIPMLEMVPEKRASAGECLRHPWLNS"}, "source": "paper PMC6970084", "biological_target": "Serine-arginine protein kinase 2 (human (endogenous in HCT116)) (UniProt P78362)", "assay": "co-IP; endogenous proteins of HCT116 cells, without or with 5-fluorouracil at its IC50; precipitated with SRPK2, Numb or p53 antibody, control IgG as negative control; blotted; procedure as in ref. 15", "note": "Results are given in words; binding and its absence hold for the method and conditions named. Binding seen in cells or lysates may run through a third protein. Some binding calls cover weakened binding; strength is not graded here.", "data": [{"binder": "Numb (protein, UniProt P49757 1-651) MNKLRQSFRRKKDVYVPEASRPHQWQTDEEGVRTGKCSFPVKYLGHVEVDESRGMHICEDAVKRLKAERKFFKGFFGKTGKKAVKAVLWVSADGLRVVDEKTKDLIVDQTIEKVSFCAPDRNFDRAFSYICRDGTTRRWICHCFMAVKDTGERLSHAVGCAFAACLERKQKREKECGVTATFDASRTTFTREGSFRVTTATEQAEREEIMKQMQDAKKAETDKIVVGSSVAPGNTAPSPSSPTSPTSDATTSLEMNNPHAIPRRHAPIEQLARQGSFRGFPALSQKMSPFKRQLSLRINELPSTMQRKTDFPIKNAVPEVEGEAESISSLCSQITNAFSTPEDPFSSAPMTKPVTVVAPQSPTFQANGTDSAFHVLAKPAHTALAPVAMPVRETNPWAHAPDAANKEIAATCSGTEWGQSSGAASPGLFQAGHRRTPSEADRWLEEVSKSVRAQQPQASAAPLQPVLQPPPPTAISQPASPFQGNAFLTSQPVPVGVVPALQPAFVPAQSYPVANGMPYPAPNVPVVGITPSQMVANVFGTAGHPQAAHPHQSPSLVRQQTFPHYEASSATTSPFFKPPAQHLNGSAAFNGVDDGRLASADRHTEVPTGTCPVDPFEAQWAALENKSKQRTNPSPTNPFSSDLQKTFEIEL", "values": [{"measurement": "binding", "result": "binds"}]}]}
